This experiment in a line: qHTS Assay for Lipid Storage Modulators in Drosophila S3 Cells.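 For cell number change: cells counted by Cell Tracker Red CMTPX staining in the red channel.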 The following applies: BODIPY lipid droplet fluorescence, 18-24 h; for cell number change: measured here: cell count max response, cells fed with added oleic acid. In outline: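 Drosophila S3 cells loaded with oleic acid (400 uM, as added) and compounds at several concentrations; lipid droplets imaged by 488-nm laser-scanning cytometry, 500–530 nm intensity and object ratio to cell channel. Percent activity normalized to 20 uM Triacsin C.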

Setting [1] is: measured here: lipid fluorescence (Fed channel) AC50, cells fed with added oleic acid.
Where [2] appears, read: measured here: cell number channel AC50, cells fed with added oleic acid.

Experimental findings from PubChem BioAssay AID2685 (National Center for Advancing Translational Sciences (NCATS), 2010) are described below.

The other results are listed elsewhere or left out. Further columns of the screen follow, without active or inactive calls. Most of these compounds were active or inconclusive in the main read-out, so they are no random draw. Words in brackets tell the shape of the fitted curve; partial curves, single points and poor fits give uncertain potencies.

A word on the AC50: it is the midpoint of the concentration-response curve, whichever way the signal moves. Read a low AC50 as activity at low concentration. For `O=C(Nc1cc(Sc2nc3ccccc3s2)cc([N+](=O)[O-])c1)c1cccc(F)c1F`, the cell number change was -1.97%. Besides, the AC50 under setting [1] was 1300 nM [rising, full curve, poor fit].

In the case of `CC1CCCC(NC(=O)C2CC(=O)N(Cc3ccccc3)C2)C1C` (configuration not stated), the cell number change turned out to be 2.44%. In addition, under setting [1], the half-maximal activity concentration (AC50) is 116 nM [falling, full curve, poor fit].

As to `C=CCNC(=O)c1ccccc1NC(=O)Nc1ccccc1`, the cell number change amounted to 7.29%. For the same compound, the AC50 under setting [1] is 1030 nM [rising, full curve].

With `CCOCCCN(C)C1CCN(C(=O)c2oc3ccccc3c2NC(=O)Cc2cccc([N+](=O)[O-])c2)CC1`, the cell number change came to 18.6%. Besides, under setting [2], the AC50 was 517 nM [rising, partial curve, poor fit]. The AC50 under setting [1] is 29100 nM [rising, single point].

On to `CC(=O)Nc1sc(C)c(C)c1C(=O)OCC(=O)NCc1ccc(Cl)cc1`, for which the cell number change was 10.8%. Besides, the AC50 under setting [2] was 651 nM [rising, partial curve, poor fit]. Besides, the AC50 under setting [1] is 2910 nM [falling, partial curve].

Take `CCCc1cc(Nc2cccc(OC)c2)n2ncnc2n1`: the half-maximal activity concentration (AC50) under setting [1] was 2060 nM [rising, single point].

Turning to `Cc1cc(-c2ccc(N3C(=O)CCC3=O)c(C)c2)ccc1N1C(=O)CCC1=O`, the cell number change is -0.455%.

On to `CCNc1ccc(N=Nc2c(C)n(C)n(-c3ccccc3)c2=O)cc1`, for which the cell number change is -26.9%. Under setting [2], the AC50 is 3660 nM [falling, single point].

With `O=C(NCc1ccccn1)c1cc(-n2cnnc2)ccc1Cl`, the cell number change was -4.77%. Moreover, under setting [1], the AC50 was 2590 nM [falling, partial curve, poor fit].

For the compound `CCn1nc(C)cc1C(=O)Sc1cccc(Br)c1`, the cell number change is -4.91%. Besides, under setting [1], the AC50 is 29100 nM [falling, single point].

For the compound `COc1cccc(CN(C)CC(=O)NC(=O)NCc2ccco2)c1`, the cell number change was determined as 32.9%. The AC50 under setting [2] was 20600 nM [rising, single point]. Under setting [1], the AC50 was 23100 nM [rising, single point].

`CCc1nnc(NC(=O)CN2CCN(Cc3ccc(F)cc3)CC2)s1`: the cell number change worked out at 30.4%. The AC50 under setting [2] was 29100 nM [rising, single point].

Regarding `COc1ccc([C@]23Cc4c(ccc5ccccc45)C(O2)C2=C(CCCC2=O)O3)cc1`, the cell number change amounted to 31.4%. Besides, the AC50 under setting [2] was 2370 nM [rising, partial curve]. Also, under setting [1], the AC50 is 5310 nM [rising, single point].

`COc1ccc(-c2csc(NC(=O)C3CSC4(C)CCC(=O)N34)n2)c(OC)c1` (configuration not stated): the cell number change was determined as 24.4%. Moreover, the AC50 under setting [1] is 1160 nM [rising, partial curve].

For the compound `CCOC(=O)N1CCN(CCC(=O)Nc2ccc(C)c(Br)c2)CC1`, the cell number change was -17%. Moreover, under setting [1], the AC50 is 820 nM [falling, single point].
